Among the data in paper PMC10593818 are binding values, retold here.

In the test the target is T1, human CLEC2D-Flag (human) (UniProt Q9UHP7).
T1 sequence: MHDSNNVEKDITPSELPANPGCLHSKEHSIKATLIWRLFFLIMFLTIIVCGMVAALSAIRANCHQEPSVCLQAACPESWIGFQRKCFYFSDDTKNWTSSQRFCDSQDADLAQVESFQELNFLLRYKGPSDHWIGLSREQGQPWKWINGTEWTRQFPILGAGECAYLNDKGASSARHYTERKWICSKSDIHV
Put plainly: co-IP; tagged proteins co-expressed in HEK293T cells, without or with C. albicans yeast (MOI = 5); lysed in Western and IP buffer; antibody-conjugated magnetic beads overnight at 4 °C; immunoblot. (In general: Immunoblotting shows a protein as a band on a membrane.)

Results are given in words; binding and its absence hold for the method and conditions named. In cells and extracts the contact can be indirect. Binding can be weak; no strength is given. Where a sequence is shown, tags or fusion partners need not be part of it.

Take “human TLR2 with the extracellular domain deleted (domain or fragment)”: the binding result was “no binding”.

Take “human TLR2 with the intracellular domain deleted (domain or fragment)”: the binding result was “binds”.

With “human TLR2 with the transmembrane domain deleted (domain or fragment)”, the binding result is given as “binds”.
